These are yes or no findings as the source states them, for the method shown. In cells and extracts the contact can be indirect. Some entries that bind do so weakly or less than the wild type.
Columns and labels:
[1] = molecular target: Peroxisome proliferator activated receptor gamma (PPARγ), full-length (wild-type [WT]) (UniProt P37231); test: co-IP; total lysate (1 mg) of HEK293T cells transfected for 24 h; primary or IgG control antibody (1 μg) overnight at 4 °C, Dynabeads protein G 10 min at RT, washed with PBST (0.1% Tween-20); immunoblot
[2] = molecular target: PPARγ, endogenous in mouse peritoneal macrophages (mouse (endogenous in peritoneal macrophages)) (UniProt P37238); test: co-IP; total lysate of mouse peritoneal macrophages, endogenous proteins; untreated, LPS-primed, or LPS plus nigericin; Dynabeads protein G; both orientations (Figure 3F and reverse co-IP precipitating PPARγ, Figure S2)
[3] = molecular target: NLRP3, endogenous in mouse peritoneal macrophages (mouse (endogenous in peritoneal macrophages)) (UniProt Q8R4B8); test: proximity ligation; Duolink PLA in situ in mouse peritoneal macrophages, endogenous proteins; untreated, LPS, LPS plus nigericin; Nlrp3-/- macrophages as control
[4] = molecular target: NLRP3, endogenous in mouse peritoneal macrophages (mouse (endogenous in peritoneal macrophages)) (UniProt Q8R4B8); test: co-IP; total lysate of mouse peritoneal macrophages, endogenous proteins; untreated, LPS-primed, or LPS plus nigericin; Dynabeads protein G; both orientations (Figure 3F and reverse co-IP precipitating PPARγ, Figure S2)

The chains behind the UniProt entries cited, without tags or fusion partners.
UniProt P37231: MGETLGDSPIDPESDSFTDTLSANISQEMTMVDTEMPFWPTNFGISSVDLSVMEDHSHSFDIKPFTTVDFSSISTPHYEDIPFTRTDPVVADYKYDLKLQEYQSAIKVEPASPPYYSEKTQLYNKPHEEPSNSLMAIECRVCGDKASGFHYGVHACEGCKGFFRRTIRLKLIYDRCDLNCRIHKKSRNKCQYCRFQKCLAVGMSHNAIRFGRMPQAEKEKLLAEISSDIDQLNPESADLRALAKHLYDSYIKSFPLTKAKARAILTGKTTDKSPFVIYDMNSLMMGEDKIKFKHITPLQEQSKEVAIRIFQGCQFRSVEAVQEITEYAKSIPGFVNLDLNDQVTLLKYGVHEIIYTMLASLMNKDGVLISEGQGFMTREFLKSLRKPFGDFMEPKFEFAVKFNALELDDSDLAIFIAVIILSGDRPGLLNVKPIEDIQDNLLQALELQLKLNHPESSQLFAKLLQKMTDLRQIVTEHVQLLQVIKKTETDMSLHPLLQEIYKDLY
UniProt P37238: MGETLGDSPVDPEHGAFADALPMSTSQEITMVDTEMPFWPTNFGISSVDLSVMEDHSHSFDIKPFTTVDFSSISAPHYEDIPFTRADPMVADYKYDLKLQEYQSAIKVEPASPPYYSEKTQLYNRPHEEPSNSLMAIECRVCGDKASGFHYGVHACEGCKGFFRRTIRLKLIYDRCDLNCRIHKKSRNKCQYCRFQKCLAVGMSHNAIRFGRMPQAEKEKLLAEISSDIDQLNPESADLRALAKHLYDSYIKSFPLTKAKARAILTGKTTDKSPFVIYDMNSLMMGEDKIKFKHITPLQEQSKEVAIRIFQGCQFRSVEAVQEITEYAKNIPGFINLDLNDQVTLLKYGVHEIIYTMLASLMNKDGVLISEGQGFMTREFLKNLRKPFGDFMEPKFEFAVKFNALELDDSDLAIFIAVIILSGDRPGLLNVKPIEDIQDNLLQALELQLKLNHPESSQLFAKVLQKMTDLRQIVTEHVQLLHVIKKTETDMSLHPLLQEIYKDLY
UniProt Q8R4B8: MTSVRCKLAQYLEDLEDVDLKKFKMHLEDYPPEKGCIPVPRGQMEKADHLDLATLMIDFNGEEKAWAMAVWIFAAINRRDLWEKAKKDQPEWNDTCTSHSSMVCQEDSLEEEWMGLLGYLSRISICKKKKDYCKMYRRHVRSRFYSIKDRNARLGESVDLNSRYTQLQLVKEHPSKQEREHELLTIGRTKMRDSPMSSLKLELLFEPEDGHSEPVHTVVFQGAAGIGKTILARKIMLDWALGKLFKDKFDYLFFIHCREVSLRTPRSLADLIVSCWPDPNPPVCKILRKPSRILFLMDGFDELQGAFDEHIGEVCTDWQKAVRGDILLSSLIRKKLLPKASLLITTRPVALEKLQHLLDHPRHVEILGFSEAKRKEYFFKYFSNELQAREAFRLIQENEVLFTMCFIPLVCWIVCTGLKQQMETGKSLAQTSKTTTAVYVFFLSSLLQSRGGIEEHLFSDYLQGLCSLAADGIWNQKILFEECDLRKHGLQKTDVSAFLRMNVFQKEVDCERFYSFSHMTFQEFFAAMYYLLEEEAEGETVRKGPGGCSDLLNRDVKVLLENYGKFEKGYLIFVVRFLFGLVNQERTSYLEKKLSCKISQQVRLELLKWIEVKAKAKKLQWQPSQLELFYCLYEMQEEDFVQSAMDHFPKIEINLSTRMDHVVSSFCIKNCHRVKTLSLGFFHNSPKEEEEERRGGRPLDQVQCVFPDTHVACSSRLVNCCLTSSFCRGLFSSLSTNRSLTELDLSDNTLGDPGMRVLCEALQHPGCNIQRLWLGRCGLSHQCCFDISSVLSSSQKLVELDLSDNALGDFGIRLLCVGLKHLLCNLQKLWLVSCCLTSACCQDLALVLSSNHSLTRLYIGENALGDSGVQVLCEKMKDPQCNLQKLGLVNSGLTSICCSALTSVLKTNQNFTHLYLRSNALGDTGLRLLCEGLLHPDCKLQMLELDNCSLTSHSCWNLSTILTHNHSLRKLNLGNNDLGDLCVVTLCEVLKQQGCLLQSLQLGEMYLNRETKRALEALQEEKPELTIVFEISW
UniProt Q9ULZ3: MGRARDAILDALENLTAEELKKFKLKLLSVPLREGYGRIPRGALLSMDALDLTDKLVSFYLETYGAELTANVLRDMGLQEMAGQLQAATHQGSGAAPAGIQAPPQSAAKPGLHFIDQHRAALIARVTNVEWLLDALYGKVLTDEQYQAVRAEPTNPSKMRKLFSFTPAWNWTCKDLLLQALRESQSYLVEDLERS

## ASC (apoptosis-associated speck-like protein containing a caspase activation and recruitment domain) (from UniProt Q9ULZ3 1-195)
[1]
  binding: no binding

## NLRP3, endogenous in mouse peritoneal macrophages (from UniProt Q8R4B8 1-1033)
[2]
  binding: binds

## PPARγ, endogenous in mouse peritoneal macrophages (from UniProt P37238 1-505)
[3]
  binding: binds
[4]
  binding: binds
